Test results reported in patent publication US5246860A, “Tracer chemicals for use in monitoring subterranean fluids” (Union Oil Company of California, priority 1992, dated 1993).

Tests used:
Conditions in all cases: 25 μl injection, estimated for signal to noise ratio of three
[1] = HPLC procedure for simultaneously analyzing 13 aromatic tracers (ion pair reversed phase, UV 224 nm): detection limits
[2] = HPLC analysis of acidic tracers (benzene polycarboxylic acids; ion pair reversed phase, UV 215 nm): detection limits
[3] = HPLC analysis of three basic aromatic tracers (reversed phase, UV 253 nm): detection limits

In the case of Cc1ccc(C)c(S(=O)(=O)O)c1 [2,5-Dimethylbenzene sulfonic acid], the “Detection Limit (Multiple Tracer Analysis)” value [1] is reported as 50 ppb.

In the case of O=S(=O)(O)c1cccc2ccccc12 [1-Naphthalene sulfonic acid], the “Detection Limit (Multiple Tracer Analysis)” value [1] is reported as 12 ppb.

For O=C(O)c1cccc(C(=O)O)c1 [Isophthalic acid], the “Detection Limit (Multiple Acidic Tracer Analysis)” value [2] was 15 ppb.

For Cc1ccc(C(=O)O)cc1 [p-Methylbenzoic acid], the “Detection Limit (Multiple Tracer Analysis)” value [1] was 18 ppb.

In the case of Cc1ccccc1C(=O)O [o-Methylbenzoic acid], the “Detection Limit (Multiple Tracer Analysis)” value [1] is reported as 30 ppb.

In the case of O=S(=O)(O)c1cccc2c(S(=O)(=O)O)cccc12 [1,5-Naphthalenedisulfonic acid], the “Detection Limit (Multiple Tracer Analysis)” value [1] is reported as 6 ppb.

For Cc1cccc(C(=O)O)c1 [m-Methylbenzoic acid], the “Detection Limit (Multiple Tracer Analysis)” value [1] was 24 ppb.

With Cc1ccc(C(=O)O)cc1C [3,4-Dimethylbenzoic acid, reference compound] the “Detection Limit (Multiple Tracer Analysis)” value [1] was 60 ppb.

In the case of O=C(O)c1ccc(C(=O)O)cc1 [Terephthalic acid], the “Detection Limit (Multiple Acidic Tracer Analysis)” value [2] is reported as 20 ppb.

In the case of Cc1cccc(C(=O)O)c1C [2,3-Dimethylbenzoic acid, reference compound], the “Detection Limit (Multiple Tracer Analysis)” value [1] is reported as 43 ppb.

For O=C(O)c1cc(C(=O)O)c(C(=O)O)cc1C(=O)O [1,2,4,5 Benzene tetracarboxylic acid], the “Detection Limit (Multiple Acidic Tracer Analysis)” value [2] was 15 ppb.

In the case of O=S(=O)(O)c1ccc2cc(S(=O)(=O)O)ccc2c1 [2,6-Naphthalenedisulfonic acid], the “Detection Limit (Multiple Tracer Analysis)” value [1] is reported as 5 ppb.

In the case of c1ccncc1 [Pyridine], the “Detection Limit (Multiple Basic Tracer Analysis)” value [3] is reported as 200 ppb.

In the case of Nc1ccccc1 [Aniline], the “Detection Limit (Multiple Basic Tracer Analysis)” value [3] is reported as 350 ppb.

With O=C(O)c1cccc(F)c1 [m-Fluorobenzoic acid, reference compound] the “Detection Limit (Multiple Tracer Analysis)” value [1] was 17 ppb.

In the case of CCc1ccc(C)nc1 [2-Methyl-5-ethylpyridine], the “Detection Limit (Multiple Basic Tracer Analysis)” value [3] is reported as 500 ppb.

In the case of Cc1ccc(S(=O)(=O)O)c(C)c1 [2,4-Dimethylbenzene sulfonic acid], the “Detection Limit (Multiple Tracer Analysis)” value [1] is reported as 36 ppb.

For O=S(=O)(O)c1ccc2ccccc2c1 [2-Naphthalene sulfonic acid], the “Detection Limit (Multiple Tracer Analysis)” value [1] was 5 ppb.
